Record: PubChem BioAssay AID1259274 (Sanger Institute, 2017)
Aim: 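Kinase knock-downs that cut colorectal cancer cell viability or boost drug killing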 (primary screen). System: human RKO colorectal cancer cells. Reagent: siRNA pool against human genes. Conditions: anchor drugs BYL719 at 1 µM, cetuximab at 5 µg/ml or trametinib at 10 nM; DMSO vehicle as the no-drug arm. Read-out: 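Viability of cells versus control pool 2 (non-targeting) averaged across replicates; knock-down-only robust z-score; for every anchor drug (BYL719, cetuximab, trametinib) a synergy score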. Direction: viability z-score, siRNA alone: higher = more viable cells; low values mean essential gene; viability, siRNA alone, vehicle: higher = more viable cells. Units: viability, siRNA alone, vehicle in fraction of control. Call rule: 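Essential when the robust viability z-score with siRNA only falls below -3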. Calls: active = essential when knocked down alone; inactive = no change alone.
Here is a random part of 794 reagents. 11 of all reagents (1.4%) were called active. 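Calls rest on knock-down without drug only; synergy scores with anchor drugs were not used for the essential call.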 Viability is capped at 1. Further read-outs or replicates are left out here. Not given: the amount of reagent, the time to read-out.

MAPK11
- viability z-score, siRNA alone: 0.00952
- viability, siRNA alone, vehicle: 0.899
- Outcome: inactive

LATS1
- viability z-score, siRNA alone: -1.42
- viability, siRNA alone, vehicle: 0.777
- Outcome: inactive

GTF2H1
- viability z-score, siRNA alone: -0.416
- viability, siRNA alone, vehicle: 0.862
- Outcome: inactive

ROR1
- viability z-score, siRNA alone: 1.19
- viability, siRNA alone, vehicle: 1
- Outcome: inactive

NUP62
- viability z-score, siRNA alone: -0.923
- viability, siRNA alone, vehicle: 0.819
- Outcome: inactive

PRKCB
- viability z-score, siRNA alone: 0.411
- viability, siRNA alone, vehicle: 0.933
- Outcome: inactive

MOS
- viability z-score, siRNA alone: 0.507
- viability, siRNA alone, vehicle: 0.941
- Outcome: inactive

3 successive entries already listed, for reference:
GTF2H1
- viability z-score, siRNA alone: -0.416
- viability, siRNA alone, vehicle: 0.862
- Outcome: inactive

ROR1
- viability z-score, siRNA alone: 1.19
- viability, siRNA alone, vehicle: 1
- Outcome: inactive

NUP62
- viability z-score, siRNA alone: -0.923
- viability, siRNA alone, vehicle: 0.819
- Outcome: inactive

Continued.
NME7
- viability z-score, siRNA alone: 0.22
- viability, siRNA alone, vehicle: 0.917
- Outcome: inactive

EFNA3
- viability z-score, siRNA alone: -0.445
- viability, siRNA alone, vehicle: 0.86
- Outcome: inactive

IKBKB
- viability z-score, siRNA alone: -0.393
- viability, siRNA alone, vehicle: 0.864
- Outcome: inactive

PANK3
- viability z-score, siRNA alone: 1.19
- viability, siRNA alone, vehicle: 1
- Outcome: inactive

CAMK2A
- viability z-score, siRNA alone: 1.19
- viability, siRNA alone, vehicle: 1
- Outcome: inactive

CLK1
- viability z-score, siRNA alone: 1.19
- viability, siRNA alone, vehicle: 1
- Outcome: inactive

HASPIN
- viability z-score, siRNA alone: -0.909
- viability, siRNA alone, vehicle: 0.82
- Outcome: inactive

ZC3H11A
- viability z-score, siRNA alone: -0.0308
- viability, siRNA alone, vehicle: 0.895
- Outcome: inactive

RPS6KA5
- viability z-score, siRNA alone: -0.149
- viability, siRNA alone, vehicle: 0.885
- Outcome: inactive

FCSK
- viability z-score, siRNA alone: 0.395
- viability, siRNA alone, vehicle: 0.932
- Outcome: inactive

CDK7
- viability z-score, siRNA alone: 1.19
- viability, siRNA alone, vehicle: 1
- Outcome: inactive

TNIK
- viability z-score, siRNA alone: 1.19
- viability, siRNA alone, vehicle: 1
- Outcome: inactive
